Results are given in words; binding and its absence hold for the method and conditions named. In cells and extracts the contact can be indirect. A yes stands for co-enrichment or nearness to the bait. Other partners may have been found.
Key:
Experiment in all cases: affinity purification with mass spectrometry
[1] = biological target: V5-Tb927.7.3040 (Trypanosoma brucei) (UniProt Q57YB4)
[2] = biological target: V5-Tb927.11.4900 (Trypanosoma brucei) (UniProt Q385S8)
[3] = biological target: V5-Tb927.8.1500 (Trypanosoma brucei) (UniProt Q580H3)
[4] = biological target: TAP-ZC3H5 (Trypanosoma brucei) (UniProt Q57WV7)

Substance | binding [1] | binding [2] | binding [3] | binding [4]
TBC-B (Tb927.7.2470) (from UniProt Q57XM7) | binds weakly | binds weakly | binds weakly | –
trypanosome homologue of Saccharomyces cerevisiae Sdo1 (Tb927.4.3140) (from UniProt Q583Z1) | binds weakly | binds weakly | binds weakly | –
Tb927.8.1500 protein (from UniProt Q580H3) | binds | binds | – | binds
Tb927.11.4900 protein (from UniProt Q385S8) | binds | – | binds | binds
